PubChem BioAssay AID1053208 | Peter MacCallum Cancer Centre | 2014

Screen: 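Genes whose silencing cuts survival of bone tumour cells only with doxorubicin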 (primary screen)
System: mouse osteosarcoma cells, early-passage culture from an engineered mouse model of fibroblastic bone tumour
Reagent: siRNA pool against mouse genes, 40 nM
Time to read-out: about 120 h (48 h before drug, then 72 h with drug)
Treatment: doxorubicin 100 nM for 72 h, roughly 30-40% inhibitory dose
Measurement: 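Viability read as ATP luminescence after 72 h of 100 nM doxorubicin or none, duplicate wells averaged, scaled to non-targeting siRNA, then expressed as robust z-scores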
Reading the numbers: viability z-score with doxorubicin: higher = more viable cells under doxorubicin; viability z-score without drug: higher = more viable cells with knock-down alone
Hit rule: 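Called active if knock-down leaves viability unchanged without drug (z within -2 to 2) but lowers it with doxorubicin (z at or under -2)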
This is an unselected part of about 17,000 deposited reagents. Over the whole deposit, 788 (4.7%) are marked active. 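Calls rest on z-score classes alone; an extra cut-off of viability at most 70% of control was not applied to them.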 Entries without a mark were called inactive. Not all columns of the deposit are shown.

combined z-score class,viability z-score with doxorubicin,viability z-score without drug,target
no change with or without drug,-0.67,-1.18,Gapvd1 (GTPase activating protein and VPS9 domains 1)
no change with or without drug,0.34,1.18,Stat6 (signal transducer and activator of transcription 6)
no change with or without drug,-0.9,-0.51,Kcnip2 (Kv channel-interacting protein 2)
no change with or without drug,-0.79,-1.85,Emc3 (ER membrane protein complex subunit 3)
no change with or without drug,1.12,1.18,Arhgap35 (Rho GTPase activating protein 35)
low cell count with doxorubicin only (active),-4.72,-0.17,Chmp1a (charged multivesicular body protein 1A)
no change with or without drug,0.22,0.17,Ngef (neuronal guanine nucleotide exchange factor)
no change with or without drug,-0.67,1.18,Fosl1 (fos-like antigen 1)
no change with or without drug,-0.9,0,"Tk2 (thymidine kinase 2, mitochondrial)"
no change with or without drug,0.67,-0.17,"Abcc12 (ATP-binding cassette, sub-family C member 12)"
no change with or without drug,1.35,-0.17,Hmgxb3 (HMG box domain containing 3)
low cell count with doxorubicin only (active),-2.02,-0.67,Kdsr (3-ketodihydrosphingosine reductase)
no change with or without drug,0.22,1.85,Trub2 (TruB pseudouridine (psi) synthase family member 2)
no change with or without drug,1.12,0.17,"Zcchc17 (zinc finger, CCHC domain containing 17)"
no change with or without drug,1.57,1.01,Lrig3 (leucine-rich repeats and immunoglobulin-like domains 3)
no change with or without drug,-1.91,0.51,Fzd4 (frizzled class receptor 4)
high cell count without drug only,0.9,2.36,Zfp459 (zinc finger protein 459)
no change with or without drug,-0.22,0.67,Lpcat4 (lysophosphatidylcholine acyltransferase 4)
no change with or without drug,0.11,0.17,Sox4 (SRY (sex determining region Y)-box 4)
high cell count with doxorubicin only,2.02,1.01,Zfp770 (zinc finger protein 770)
no change with or without drug,-0.67,-0.17,"Anpep (alanyl aminopeptidase, membrane)"
no change with or without drug,0,0.34,"Fam167a (family with sequence similarity 167, member A)"
no change with or without drug,-1.8,-1.18,Ube2h (ubiquitin-conjugating enzyme E2H)
no change with or without drug,0.9,-1.35,Nck2 (non-catalytic region of tyrosine kinase adaptor protein 2)
no change with or without drug,0.67,-0.51,Bmp2 (bone morphogenetic protein 2)
no change with or without drug,1.91,1.52,Zfp317 (zinc finger protein 317)
low cell count with doxorubicin only (active),-2.25,0.17,Adam10 (a disintegrin and metallopeptidase domain 10)
no change with or without drug,1.35,-0.17,Nqo2 (N-ribosyldihydronicotinamide quinone reductase 2)
no change with or without drug,-1.01,-0.51,Sall3 (spalt like transcription factor 3)
low cell count with and without drug,-3.37,-4.22,Rpl39 (ribosomal protein L39)
no change with or without drug,0.45,-0.51,"Scgb3a2 (secretoglobin, family 3A, member 2)"
low cell count with doxorubicin only (active),-2.47,-1.85,Cldn15 (claudin 15)
low cell count with doxorubicin only (active),-2.02,-0.34,Aar2 (AAR2 splicing factor homolog)
no change with or without drug,1.46,1.85,Galnt1 (polypeptide N-acetylgalactosaminyltransferase 1)
no change with or without drug,1.12,1.35,Mturn
no change with or without drug,0.45,0.51,"Uba1y (ubiquitin-activating enzyme, Chr Y)"
no change with or without drug,0.9,-0.17,Pafah2 (platelet-activating factor acetylhydrolase 2)
no change with or without drug,0.22,0.84,Dtnbp1 (dystrobrevin binding protein 1)
no change with or without drug,-1.12,-0.51,Rragd (Ras-related GTP binding D)
no change with or without drug,-1.91,-0.84,Tagln (transgelin)
no change with or without drug,0.9,-0.17,Neil2 (nei like 2 (E. coli))
no change with or without drug,-0.22,1.18,Lbh (limb-bud and heart)
no change with or without drug,-0.45,-0.51,"Tnfsf14 (tumor necrosis factor (ligand) superfamily, member 14)"
no change with or without drug,-0.67,-0.17,Mmp13 (matrix metallopeptidase 13)
no change with or without drug,0.45,1.01,Zbtb25 (zinc finger and BTB domain containing 25)
no change with or without drug,-1.12,-0.67,Phaf1 (phagosome assembly factor 1)
no change with or without drug,0.9,-0.17,BC002230
no change with or without drug,-1.12,0.84,"Eif2b2 (eukaryotic translation initiation factor 2B, subunit 2 beta)"
no change with or without drug,0.56,0,Kremen1 (kringle containing transmembrane protein 1)
no change with or without drug,-1.57,-0.67,Zfp775 (zinc finger protein 775)

Reformatted: entries from further up
{"target":"Fam167a (family with sequence similarity 167, member A)","combined z-score class":"no change with or without drug","viability z-score with doxorubicin":0,"viability z-score without drug":0.34}
{"target":"Ube2h (ubiquitin-conjugating enzyme E2H)","combined z-score class":"no change with or without drug","viability z-score with doxorubicin":-1.8,"viability z-score without drug":-1.18}
{"target":"Nck2 (non-catalytic region of tyrosine kinase adaptor protein 2)","combined z-score class":"no change with or without drug","viability z-score with doxorubicin":0.9,"viability z-score without drug":-1.35}
{"target":"Bmp2 (bone morphogenetic protein 2)","combined z-score class":"no change with or without drug","viability z-score with doxorubicin":0.67,"viability z-score without drug":-0.51}
{"target":"Zfp317 (zinc finger protein 317)","combined z-score class":"no change with or without drug","viability z-score with doxorubicin":1.91,"viability z-score without drug":1.52}
{"target":"Adam10 (a disintegrin and metallopeptidase domain 10)","combined z-score class":"low cell count with doxorubicin only (active)","viability z-score with doxorubicin":-2.25,"viability z-score without drug":0.17}
{"target":"Nqo2 (N-ribosyldihydronicotinamide quinone reductase 2)","combined z-score class":"no change with or without drug","viability z-score with doxorubicin":1.35,"viability z-score without drug":-0.17}
{"target":"Sall3 (spalt like transcription factor 3)","combined z-score class":"no change with or without drug","viability z-score with doxorubicin":-1.01,"viability z-score without drug":-0.51}
